# According to PubChem BioAssay AID1259415 (National Center for Advancing Translational Sciences (NCATS), 2018):
# The whole screen tested about 410,000 compounds, of which about 18,000 (4.4%) were called active. The inconclusive results got no clear call from the source; some entries with a clear call stand among them for comparison. No stated cut-off is given here; in the data, active means activity change below about -60%; inconclusive means no clear call, values can overlap the other calls; inactive means above about -39%.
# Assay: qHTS Assay for inhibitors of the human cytomegalovirus (HCMV)
# Conditions: HFF cells, HCMV-luciferase reporter, 72 h; at 57.5 µM; stronger effect = lower value
# Procedure, shortened: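 Two-dose cell screen: HFF monolayers treated with compounds and infected with luciferase-expressing HCMV at 1 PFU/cell, 72 h at 37C, then lysed for luciferase measurement.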
# On the % scale 0 is the no-effect control and ±100 the full control effect.
row,Compound,"activity change, negative = inhibition"
1,O=C(CCCn1c(=S)[nH]c2ccc(Br)cc2c1=O)NCc1ccccn1,inconclusive: -40.5%
2,Cc1cc2c(cc1S(=O)(=O)N1CCOCC1)NC(=O)CO2,inconclusive: -42%
3,CSc1nc(O)c(C(c2ccc(O)cc2)c2c(O)nc(SC)[nH]c2=O)c(=O)[nH]1,active: -68.7%
4,Cc1ccc(Sc2cnc(N)nc2C)cc1,inconclusive: -43.1%
5,CCOC(=O)c1c(NC(C)=O)sc(/C(C)=N/Nc2ccc(C(=O)O)cc2)c1C,inactive: -24.3%
6,CC(=O)Nc1ccc2c(=O)n(-c3ccccc3)sc2c1,active: -75.4%
7,Cc1ccc(OCC(=O)c2cc(C)n(Cc3cccs3)c2C)c([N+](=O)[O-])n1,active: -94.1%
8,CC(C)CCNC(=S)Nc1ccccc1F,inconclusive: -45.6%
9,CCc1ccc(C2C(C(=O)O)c3ccccc3C(=O)N2C)cc1 (centres undefined),inactive: -3.64%
10,CN(C)C(CNC(=O)c1cc(S(=O)(=O)N(C)c2ccccc2)ccc1Cl)c1ccccc1 (centres undefined),inconclusive: -45.6%
11,COc1ccccc1CN1CC(C(=O)N2CCCCO2)CCC1=O (centres undefined),inactive: -10.1%
12,Cc1cccc(C(=O)Nc2ccc(NC(=O)c3ccccc3)cc2)c1,inactive: 29.4%
13,CCC(=NCc1ccc(F)cc1)c1c(O)n(C)c(=O)n(C)c1=O,inconclusive: -46.1%
14,O=C1CC(c2cccc(Br)c2)C2=C(COC2=O)N1 (centres undefined),inactive: -34.5%
15,O=C(CN1CCN(S(=O)(=O)c2ccccc2[N+](=O)[O-])CC1)NC(=O)NCc1ccco1,inconclusive: -44.7%
16,COc1ccc(C2=C(C=O)Cc3ccccc3O2)cc1,inconclusive: -57.8%
17,Cc1nc2cc(-c3ccccc3)nn2c(N)c1-c1ccccc1,inconclusive: -56.8%
18,COc1ccc(C(=O)NC2CCN(C(=S)NCc3ccco3)CC2)cc1,inactive: -16.5%
19,Nc1cc(-c2ccc(Br)cc2)[nH]n1,inconclusive: -41.6%
20,O=[N+]([O-])c1cccc(/C=C2\CCC(/C=N/Nc3ccc4ccccc4n3)=C2N2CCOCC2)c1,inconclusive: -46%
21,COC(=O)C1=C(O)C(C(=O)OC)C(c2ccc(C)cc2)C(C#N)(C#N)C1c1ccc(C)cc1 (centres undefined),active: -96.5%
22,CCOc1ccc(N(CC(=O)Nc2c(C)cccc2C)S(=O)(=O)c2c(C)[nH]c(=O)[nH]c2=O)cc1,inconclusive: -43%

row,Compound,"activity change, negative = inhibition"
1,COc1ccc(OCC(=O)N2CCN(Cc3nc4cc([N+](=O)[O-])ccc4n3C)CC2)cc1,inconclusive: -41.9%
2,COc1ccc(CCNC(=O)N2c3ccccc3Sc3ccccc32)cc1,inconclusive: -57.8%
3,CCOc1ccc(NC(=O)c2cc(S(=O)(=O)NC3CCCCCC3)ccc2F)cc1,inconclusive: -59.6%
4,CCc1nnc(NC(=O)COc2ccc(N(C)S(=O)(=O)c3ccc(C)cc3)cc2)s1,active: -102%
5,COc1ccc2c(c1)CCc1c(C(=O)Nc3c(C)nn(Cc4ccccc4)c3C)noc1-2,inconclusive: -58.2%
6,COC(=O)c1ccc(NCCC(=O)O)cc1,inconclusive: -46.2%
7,COC(c1ccccc1)c1nnc(CCC(=O)NCc2ccc3ncccc3c2)o1 (centres undefined),inactive: -22.1%
8,CCC(C)NC(=O)CCCc1nnc2n(CC(C)C)c(=O)c3sccc3n12 (centres undefined),inconclusive: -56%
9,COc1cccc(NC(=S)N/N=C2\CC(C)(C)Oc3ccc(O)cc32)c1,inconclusive: -49.1%
10,CCN=c1scc(C)n1/N=C/c1cc(Br)c(O)c(OC)c1,inconclusive: -50.9%
11,COc1cc(/C=N/n2c(C)n[nH]c2=S)ccc1OCc1ccc(F)cc1,inactive: -34.3%
12,COc1ccc(S(=O)(=O)Nc2ccc3oc(C)c(C(C)=O)c3c2)cc1,inconclusive: -45.2%
13,CCOc1ccc(N2CC(C(=O)Nc3cc(S(=O)(=O)N4CCCCC4)ccc3C)CC2=O)cc1 (centres undefined),inactive: 4.73%
14,COc1ccc(CNC(=O)CC2C(=O)NCCN2CC(C)(C)C)c(OC)c1 (centres undefined),inconclusive: -40.3%
15,COc1ccc(CNc2ncnc3cc(Cl)ccc23)cc1OC,active: -69.9%
16,NS(=O)(=O)c1ccc(N=Cc2ccc(Br)s2)cc1,inconclusive: -41.2%
17,C=CCN(c1ccccc1)S(=O)(=O)c1cccc(C(=O)NCC(c2cccs2)N2CCOCC2)c1 (centres undefined),inconclusive: -56.6%
18,O=C(Cn1cc2c(n1)CCCCC2)NCCCN1CCOCC1,inconclusive: -47.1%
19,Cc1nc(/N=C(\N)NC(=O)NC2CCCCC2)nc2ccccc12,active: -84.3%
20,COc1ccccc1N(C)S(=O)(=O)c1ccc(C(=O)N(C)Cc2cccc(OC)c2OC)cc1,inconclusive: -44.9%
21,CC1=CC(C)(C)N2C(=O)C3(NCCc4c3[nH]c3ccccc43)c3cc(C)cc1c32 (centres undefined),inconclusive: -53.3%
22,C(=N\N1CCN(Cc2ccccc2)CC1)/c1ccc(-c2ccccc2)cc1,inconclusive: -46.8%

# An excerpt from further up:
row,Compound,"activity change, negative = inhibition"
4,CCc1nnc(NC(=O)COc2ccc(N(C)S(=O)(=O)c3ccc(C)cc3)cc2)s1,active: -102%
5,COc1ccc2c(c1)CCc1c(C(=O)Nc3c(C)nn(Cc4ccccc4)c3C)noc1-2,inconclusive: -58.2%
6,COC(=O)c1ccc(NCCC(=O)O)cc1,inconclusive: -46.2%
